Assay results reported in patent US20070128719A1, “ISOLATION AND EXPANSION OF ANIMAL CELLS IN CELL CULTURES” (TissueTech, Inc., priority 2003, published 2007).
For at least one compound, name, drawing or mass did not settle the structure.

Legend:
human limbal explants = experiment: Epithelial outgrowth from human limbal explants cultured on intact AM with kinase inhibitors; format: cell-based; conditions: limbal explant on intact AM in SHEM, vs DMSO control
Description: Human AM was provided by Bio-Tissue (Miami, Fla.) and stored at −80° C. before use. AM was devitalized by freezing and thawing and washed three times with HBSS before being fastened onto a 30 mm culture insert, Millicel-CM (which generated an insert with 23 mm diameter covered by AM), and placed in a 6 well plate (Meller, D. and Tseng S C G, Invest Ophthalmol Vis Sci., 40:878-86, 1999).
After removal of excessive sclera, iris, corneal endothelium, conjunctiva, and Tenon's capsule, the limbal ring was separated by a 7.5 mm trephine from donor human corneas. Each limbal ring was rinsed 3 times with SHEM media. The limbal ring was then exposed for 10 min to 1.2 units/ml Dispase II in Mg^2+- and Ca^2+-free HBSS at 37° C. under 95% humidity and 5% CO2. […] The culture was maintained at 37° C. under 95% humidity and 5% CO2, the medium was changed every other day, and their outgrowth was monitored daily for 17 days using an inverted phase microscope (Nikon, Japan). The outgrowth area was digitized every other day by Adobe Photoshop 5.5 and analyzed by NIH ImageJ 1.30v (NIH, Bethesda, Md.).
All experiments were performed at least in triplicate. Summary data were reported as means±S.D., compiled and analyzed by MicroSoft Excel™ (MicroSoft, Redmont, Wash.). The mean and standard deviation were calculated for each group using the appropriate version of Student's unpaired t-test. […]

Akt = experiment: Western blot of Akt phosphorylation in limbal epithelial cells expanded on intact AM; format: cell-based, human; conditions: 50 μM
FKHRL1 = experiment: Western blot of FKHRL1 phosphorylation in limbal epithelial cells expanded on intact AM; format: cell-based, human; conditions: 50 μM
p44/42 MAPK = experiment: Western blot of p44/42 MAPK phosphorylation in limbal epithelial cells expanded on intact AM; format: cell-based, human; conditions: 50 μM

Question: How did the epithelial outgrowth (human limbal explants; 20 μM) turn out when O=c1cc(N2CCOCC2)oc2c(-c3ccccc3)cccc12 [LY294002] was run?
Answer: complete inhibition

Question: And the epithelial outgrowth (human limbal explants; 50 μM)?
Answer: complete inhibition

Question: And the “phosphorylation of Akt at Thr308 and Ser473” value (Akt)?
Answer: abolished

Question: What about the “Thr32 phosphorylation of FKHRL1” value (FKHRL1) of the same molecule?
Answer: decreased

Question: And the “p44/42 MAPK phosphorylation” value (p44/42 MAPK)?
Answer: did not change
